Data: patent US20150284768A1
These are yes or no findings as the source states them, for the method shown. Some entries that bind do so weakly or less than the wild type.

Experiments:
[1] = molecular target: wild type (WT) Hermes Transposase (Musca domestica); assay: oligomeric state in solution (FIG. 4 diagram); self-association
[2] = molecular target: wild type (WT) Hermes Transposase (Musca domestica); assay: size-exclusion chromatography and sedimentation equilibrium; self-association

B1: wild type (WT) Hermes Transposase (enzyme)
chain: MQKMDNLEVKAKINQGLYKITPRHKGTSFIWNVLADIQKEDDTLVEGWVFCRKCEKVLKYTTRQTSNLCRHKCCASLKQSRELKTVSADCKKEAIEKCAQWVVRDCRPFSAVSGSGFIDMIKFFIKVGAEYGEHVNVEELLPSPITLSRKVTSDAKEKKALISREIKSAVEKDGASATIDLWTDNYIKRNFLGVTLHYHENNELRDLILGLKSLDFERSTAENIYKKLKAIFLQFNVEDLSSIKFVTDRGANVVKSLANNIRINCSSHLLSNVLENSFEETPELNVPILACKNIVKYFKKANLQHRLRSSLKSECPTRWNSTYTMLRSILDNWESVIQILSEAGETQRIVHINKSIIQTMVNILDGFERIFKELQTCSSPSLCFVVPSILKVKEICSPDVGDVADIAKLKVNIIKNVRIIWEENLSIWHYTAFFFYPPALHMQQEKVAQIKEFCLSKMEDLELINRMSSFNELSATQLNQSDSNSHNSIDLTSHSKDISTTSFFFPQLTQNNSREPPVCPSDEFEFYRKEIVILSEDFKVMEWWNLNSKKYPKLSKLALSLLSIPASSAASERTFSLAGNIITEKRNRIGQQTVDSLLFLNSFYKNFCKLDI
[1]
  binding: binds
[2]
  binding: binds
